The record followed here is US10376603B2, “Engineered fluorinated biomaterials” (New York University, priority 2015, dated 2019).

Data set [1] is described as follows: 19F NMR inversion recovery and CPMG relaxation. The settings on record: 19F NMR 11.7 Tesla. As to the method:
Nuclear Magnetic Resonance (NMR) experiments were carried out on a 500 MHz (11.7 Tesla) Bruker Avance II instrument equipped with a 5 mm room-temperature BBFO SMART probe and Topspin 3.2 software. For variable temperature (27° C., 37° C. and 42° C.) ^19F/^1H decoupling experiments, CE2-RGD-TFL (1.2 mg/mL) was subjected to 15000 scans with a sweep width of 76.62 ppm, acquisition time of 0.4547 seconds, relaxation time of 1.0 second, pulse length of 15 μseconds and referenced with 0.01% para-fluorophenylalanine. Both the inversion recovery and Car-Purcell-Meiboom-Gill (CPMG) ^19F NMR experiments were performed on CE2-RGD-TFL (0.5 mg/mL, 0.6 mg/mL, 0.75 mg/mL, 0.9 mg/mL) at varying temperatures (22° C., 27° C., 32° C., 37° C.). The relaxation times (T1 and T2) were determined by using Topspin 3.2 software.

A short description of data set [2]: 2D Gradient Echo MRI of phantoms. Conditions: approximately 5 mg/mL phantom, 7T. The procedure: Magnetic Resonance imaging (MRI) experiments were carried using a 2D Gradient echo (GE) MRI. For GE experiments, a solution of approximately 5 mg/mL CE2-RGD-TFL (total volume ˜500 μL) (FIG. 8) and a negative control volume of water were placed in separate 5 mm NMR tubes and subjected to scanning in a home-made coil. A broadband tuning and matching solenoid coil was developed to cover both Larmor frequencies of ^1H proton (300.16 MHz) and ^19F (282.4 MHz) at 7T. The solenoid coil was made from silver plated copped wire wrapped tightly around a plastic holder that can hold up to 2 glass tubes (OD 6 mm). The coil was first tuned and matched for ^1H scan that provide more signal and can be used as reference for ^19F scan. A 2D Gradient Echo (GE) sequence was used with 50 mm slice thickness (covering the whole length of the tube) and 300 μm in-plane (matrix size 64×64, TE 2.2 ms, TR 30 ms, scanning time 2 seconds). The coil was then tuned to ^19F frequency and scanned using the same sequence with lower resolution (600 μm in-plane, matrix size 32×32, scanning time 14 hours

B1: CE2-RGD-TFL: fluorinated protein block copolymer, SEQ ID NO:18: COMPcc domain flanked by RGD linkers plus elastin-like domain; all 11 leucines as 5,5,5-trifluoroleucine (protein)
chain: MRGSHHHHHHGSACELAARGDATATATATAACGDLAPQMLRELQETNAALQDVRELLRQQVKEITFLKNTVMESDASGLQAARGDATATATATAVDKPIAASAVPGVGVPGVGVPGFGVPGVGVPGVGVPGVGVPGVGVPGFGVPGVGVPGVGVPLEGSGTGAKLN
modifications: all leucines as 5,5,5-trifluoroleucine
notes: all 11 leucines as 5,5,5-trifluoroleucine
For the molecule B1, the r1 is on record as −9.06E−05 in data set [1] (Conc. 0.50 mg/mL), −3.15E−05 in data set [1] (Conc. 0.60 mg/mL), −2.82E−05 in data set [1] (Conc. 0.75 mg/mL) and −2.81E−05 in data set [1] (Conc. 0.90 mg/mL). The “MRI signal, instrument tuned to 1H radiofrequency” value in data set [2] is “positive signals”. Besides, the “MRI signal, instrument tuned to 19F radio frequency” value in data set [2] (14 hours scan) is on record as “positive signal”.
